Measured values as given in the supplement of paper PMC5949888.
Most values lie at the floor of the assay. Slopes are relative: functional sequences can read slightly below zero.

System: Saccharomyces cerevisiae PS128 hsf1 delta, HSF1(1-493) fusion
Assay: growth estimate (transactivation domain function in HSF1 fusion, heat-shock survival) (a.u. (slope of normalised read count over time)); higher = stronger growth at 37°C, i.e. more transactivation activity
Settings: library: random library

| Substance | growth estimate |
| --- | --- |
| RAVIPRMCQQFLSNCLLEWS | < -0.25 |
| CRIPRVPVIVLW | < -0.25 |
| NGGIPHERGHPPVVLEGLFL | < -0.25 |
| VASVNATRTVAYPCH | < -0.25 |
| ASPSGTRDVRVNASVNVPEC | < -0.25 |
| PFAMGFTTTGLADCAVGPPT | < -0.25 |
| HGAELPRFGTS | < -0.25 |
| DRR | < -0.25 |
| CGYVTPHQS | < -0.25 |
| IVKTHGLSFLPSMQDPLEVR | < -0.25 |
| RVVGGIRGEGVGERGIRVRV | < -0.25 |
| KRVRGRNPRGLFGQRFLCMC | < -0.25 |
| GSVRA | < -0.25 |
| CYKRQEMTMPCVLPCPGTTR | < -0.25 |
| VWRIDECDSMQHA | < -0.25 |
| FWGRLPYEESHIR | < -0.25 |
| VLRGLNGP | < -0.25 |
| RQRKALLR | < -0.25 |
| SANRMRSVLRTLVRLLVNES | < -0.25 |
| PSALSSLWGANPRRSLGVHF | < -0.25 |
| LHSAKVFEYSWTFLANGRSI | < -0.25 |
| LRGAFIGVKAPGHAGRPSYH | < -0.25 |
| SFSLRRPPRDNSGVHCPRGP | < -0.25 |
| ETSQDPRTEGF | < -0.25 |
| PRRKYYFGLVRYRINV | < -0.25 |
| GTNPVDHSLGVSRSNTALRR | -0.246 |

Some of the entries so far, in CSV form:
Substance,growth estimate
NGGIPHERGHPPVVLEGLFL,< -0.25
VASVNATRTVAYPCH,< -0.25

Further records follow:

| Substance | growth estimate |
| --- | --- |
| WWQNNFDGVATGCPKVTYAD | < -0.25 |
| TSCRSSRAIDVKGIIARRRL | < -0.25 |
| TDTESSVGELVKPRGGLGYN | < -0.25 |
| RLTGRRGWVP | < -0.25 |
| RSARPVPDVPILNSTSRRND | < -0.25 |
| SRPRASTPNRLNIQRSREKR | < -0.25 |
| EGRLGTWTLPHC | < -0.25 |
| RGPSNDVCSKQWRGHTGDKI | -0.228 |
| SYLSKGCSG | < -0.25 |
| PGLCLTRIG | < -0.25 |
| AHVRIHASKLGVTSN | < -0.25 |
| SQRVGLEYRSPAGTSGVCTR | < -0.25 |
| NSSSLAQLNGVREYHLSGPF | < -0.25 |
| EILLTL | < -0.25 |
| VRWHL | -0.231 |
| IAIVKGRMPCYCQGGRPLYS | < -0.25 |
| CCLRISRRVSHARIINLQ | < -0.25 |
| TPALELWGLTSAEAAHSRAI | < -0.25 |
| ACL | < -0.25 |
| ATM | < -0.25 |
| ILSQLCP | < -0.25 |
| DIDR | < -0.25 |
| RSRVDKRLEPTQGHRSLGSE | < -0.25 |
| NGGNK | < -0.25 |
| YRWVHPQWGPSRDQPNRCSA | -0.243 |
| EYGRR | < -0.25 |

| Substance | growth estimate |
| --- | --- |
| ASSTYRP | -0.25 |
| PSFLLWLKQTTRESRPICSW | < -0.25 |
| GCIG | < -0.25 |
| IDVNQQVGVLRRVLTRHESA | < -0.25 |
| KKSWRGCARPY | < -0.25 |
| KWTSLWTTTSSSSTSWRLHD | 6.76 |
| AGNPGALEVRKCWGGGIVVP | < -0.25 |
| VPRSATSA | < -0.25 |
| QYGGTASMKFGVGVRPGGAR | < -0.25 |
| ILHLALN | < -0.25 |
| SIGVDHLPGGIPDNSARRCE | < -0.25 |
| ASCGGQPILSGF | < -0.25 |
| LVFPVHLGLAPDGTMLL | < -0.25 |
| IHKYDER | < -0.25 |
| SRTSSAAGE | < -0.25 |
| HEVRYVSPRDMVSKYAA | < -0.25 |
| YSDGCAEARLQNAFPTDIDP | 3.24 |
| IDIIRILWSIEGYRTTDRRT | < -0.25 |
| LVCWVGERMLVMDFIFSITP | < -0.25 |
| GVRMIGARQFKVELQCSKLG | < -0.25 |
| KVCCLQTGCRGIVFHNAQDR | -0.231 |
| SLERSSQVARQYCNVPDLQR | < -0.25 |
| TPSRKMAAHLSSRRGLSGTK | < -0.25 |
| EIIVMILLGAPGGINLHFEG | < -0.25 |
| RNRDQTDELVARFTAKSTPR | -0.208 |
| NTRKSSLTSRNLLGTRSQSV | < -0.25 |

For convenience, part of the list above.

| Substance | growth estimate |
| --- | --- |
| PSALSSLWGANPRRSLGVHF | < -0.25 |
| LHSAKVFEYSWTFLANGRSI | < -0.25 |
| LRGAFIGVKAPGHAGRPSYH | < -0.25 |
| SFSLRRPPRDNSGVHCPRGP | < -0.25 |

Additional entries:

| Substance | growth estimate |
| --- | --- |
| SVEG | < -0.25 |
| EVLMGREPLRKSCYRPFTKP | < -0.25 |
| TGRSFARDVTVGRFTYVAVR | < -0.25 |
| QSSRSGNTRKLYQMI | < -0.25 |
| FASCSSDGGTELDVNCSERF | < -0.25 |
| QIMIYPATLYLGFQRTVRTK | < -0.25 |
| FTRS | < -0.25 |
| GRGRDATK | < -0.25 |
| TKISL | < -0.25 |
| VDNKFAALER | -0.243 |
| RRWTATLSLGLGNAKFSHSH | < -0.25 |
| IIAY | < -0.25 |
| GRLVSGVKAWLRLVRRRAKN | < -0.25 |
| PVTRPS | < -0.25 |
| SEA | < -0.25 |
| HGEGC | < -0.25 |
| VLPQVASFYP | < -0.25 |
| KYTLARRAGETNYDKAL | < -0.25 |
| PGRRGKSGVPTRERPERTYA | < -0.25 |
| FRVREVRARVVVRAIGAAQS | < -0.25 |
| TPSWPKSIRLINKRRV | < -0.25 |
| VASRTL | < -0.25 |
| EHYSLPFGESMRGKKGG | < -0.25 |
| VYSVVFEFGRHGGMNLVHED | < -0.25 |
| RSFALDK | < -0.25 |
| GSLCGLYYQNAVPVHCIGKT | < -0.25 |

| Substance | growth estimate |
| --- | --- |
| VHLNGRGGVPSLCQRRQHQL | < -0.25 |
| GLPFSQGRL | < -0.25 |
| RTKLVRDNMYSLPAHGTS | < -0.25 |
| TVALFWYWSRVHVSGGLSAP | < -0.25 |
| LQAVRGHPSTGFICASHGSC | < -0.25 |
| WHGGGRNGAMELS | < -0.25 |
| DYPPNDSTIVWGRKSHRLIL | < -0.25 |
| LSKLESS | < -0.25 |
| LKLVFVRGSRNGSIHW | < -0.25 |
| VTNGAIKRGFRIGALMCPGR | < -0.25 |
| LVDLGRAERALSSITSTFTC | < -0.25 |
| RFAGLGGRLVELHLT | < -0.25 |
| HVDQSFGRD | < -0.25 |
| MLVRLLSLSQSR | < -0.25 |
| MTLA | < -0.25 |
| SGFLTCWERYLI | < -0.25 |
| IKL | < -0.25 |
| MKLQRGDVESW | < -0.25 |
| RKQLGRLRAPSGYKVVKWSD | < -0.25 |
| FGSRHWEPVCSVRVERL | < -0.25 |
| SADSRLAIWNGFVFQA | < -0.25 |
| PGRSVRYSKPRLV | < -0.25 |
| TKHGLRAEYVTRGT | < -0.25 |
| PYENNAFKL | < -0.25 |
| LHRNATRDVRRRTFFNENIP | < -0.25 |
| LHEAAGIAASSGNK | < -0.25 |

| Substance | growth estimate |
| --- | --- |
| AMYDRFRRRSGQSAR | < -0.25 |
| DESQEYVTCCHTLGKVLREW | -0.25 |
| CIRRDFQGTDKIASV | < -0.25 |
| HASVWGS | < -0.25 |
| HGHPRNGWTSG | < -0.25 |
| ERLCEYRFGGPVMQI | < -0.25 |
| MNV | < -0.25 |
| GRVCVVSTARLNSVLIRANV | < -0.25 |
| FRK | < -0.25 |
| LNL | < -0.25 |
| LSDADPCWLGQ | < -0.25 |
| VRRGPFAFVEAIGCQL | < -0.25 |
| RKG | < -0.25 |
| TGL | < -0.25 |
| INYSNPVIYVIP | < -0.25 |
| CGLLSVGKGSPHGSRSLIAR | < -0.25 |
| RAQYSAALPAV | < -0.25 |
| DNMRNLCTILPTLHLAF | < -0.25 |
| TPPLF | < -0.25 |
| REQVHGVRDKLPESTSPPKR | < -0.25 |
| LISVSVSPVQLAGWWGQ | < -0.25 |
| TPRYNQKG | < -0.25 |
| PLGLRQPIPNVFWAMFSPIC | < -0.25 |
| TKCRH | < -0.25 |
| CRKVNRYGFRGFK | < -0.25 |
| TTLEVSEGAGVGWKM | < -0.25 |

| Substance | growth estimate |
| --- | --- |
| KADVGSTKAKIVSHMQMRLH | < -0.25 |
| RLSGYCETILRSDFIMDLRR | < -0.25 |
| AGQTKPL | < -0.25 |
| APLGGPTACLAHSDVQFVMF | < -0.25 |
| LDPIGQYL | < -0.25 |
| SSHTHPVVLCKH | < -0.25 |
| GEGK | < -0.25 |
| IVEGQ | -0.246 |
| LLSSFRPHN | < -0.25 |
| RCCIYGHVWTRIVGWSQAVA | < -0.25 |
| LSRCQVIQRWPVVVLVLVGN | < -0.25 |
| FRIMWVTMGGLPVSVASSVR | < -0.25 |
| QSILKMN | < -0.25 |
| WFLLYCFLGSVSLCICGHLV | < -0.25 |
| LSVMCRR | < -0.25 |
| LNQDSELRGPVLAKAC | < -0.25 |
| GVGFG | < -0.25 |
| ITSGHCFTNRH | < -0.25 |
| AGTEPGNTISSRALGPDGHS | < -0.25 |
| GCMSTVSNIQW | < -0.25 |
| EPMGLDQWHNEEGFWRAGAA | < -0.25 |
| GVIGTSSHAPYELTGRFYAH | < -0.25 |
| LTMISAIFCWNAR | < -0.25 |
| ASLLWTVCGEVVMRMQCGER | < -0.25 |
| LDGSRHRRCCPPNRPTCLSK | < -0.25 |
| FVGPVVYYLQDSSILNRSSM | < -0.25 |

| Substance | growth estimate |
| --- | --- |
| RCAQWKPSHIPTFLPMMHPG | < -0.25 |
| GMS | < -0.25 |
| GILIPSGDLTP | < -0.25 |
| TLLSEDRIRRADNLPFSGAS | < -0.25 |
| GAVGTYRRLK | < -0.25 |
| WSSRNAVS | < -0.25 |
| ANLPLCISELIKATQGGHGH | < -0.25 |
| RVSWSPRGSMESTIAPGSS | -0.243 |
| QREATKLVRQEGVPLTARSP | < -0.25 |
| SVPSTPRNRDMCSPTRDQ | < -0.25 |
| VLGPVCVQVRLTLSGAFRAP | < -0.25 |
| VSYAGRKPVRRFTLDHACSG | < -0.25 |
| TFR | -0.248 |
| SSDL | < -0.25 |
| GWICLW | < -0.25 |
| LLGATTHRYKDAGVYEIRGT | < -0.25 |
| SAGNSCRGMWPVLHLRSLMD | < -0.25 |
| RSCRIVQVGPISPRCVLRSR | < -0.25 |
| VQDWRAIGGTYDLGPAVAG | < -0.25 |
